The values below come from PubChem BioAssay AID445 (National Center for Advancing Translational Sciences (NCATS), 2006).

Each structure is given as a SMILES string. The list shows a part of the results. Further columns of the screen follow, without active or inactive calls. Compounds called inactive in the main read-out are mostly missing here. Words in brackets tell the shape of the fitted curve; partial curves, single points and poor fits give uncertain potencies.

The nature of this experiment: IkB Signaling. As to conditions: ABC-DLBCL IkBa-CBG/CBR dual luciferase ratio (green luciferase fused to IkBa over red control in OCI-Ly3 lymphoma cells), 4 h. An outline of the steps:
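Luminescence ratio of IκBα-fused green versus native red beetle luciferase in OCI-Ly3 cells, 4 h post-doxycycline with compound; red signal alone, scaled from basal (0%) to zero light (-100%), flagged nonspecific or cytotoxic effects.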

The mark [1] stands for this setting: measured here: control luc red channel unless noted.

On to `CC(C)c1ccc(Cn2c(COc3ccccc3)nc3ccccc32)cc1`, for which the AC50 (as a rule, the concentration at which the activity in the assay is half-maximal) under setting [1] is 20 µM [falling, partial curve].

For `CCn1nc(C)c2c(-c3ccccc3)cc(=O)n(C(C)C(=O)NCCC(C)C)c21` (stereo not drawn), the AC50 under setting [1] is 39.8 µM [falling, single point].

For `CC(=O)Nc1ccc(NC(=O)CCc2nc3cccnc3n2Cc2cccs2)cc1`, the AC50 under setting [1] is 39.8 µM [falling, partial curve, poor fit].

Take `CC1CCN(Cc2c(O)ccc3c(=O)c(Oc4ccccc4Cl)c(C(F)(F)F)oc23)CC1`: the AC50 under setting [1] was 39.8 µM [falling, single point].

As for `CSc1nsc(SC)c1NC(=O)OC1CCCCC1`, the AC50 under setting [1] was 20 µM [falling, partial curve].

Consider `COc1ccc(NC(=O)CC2C(=O)N(c3cccc(OC)c3)C(=O)N2CCc2cccs2)cc1` (stereo not drawn), for which the AC50 under setting [1] was 39.8 µM [falling, single point].

With `Cc1ccc(NC(=O)Cn2c(=O)n(Cc3nc(-c4ccccc4)no3)c(=O)c3cc4c(cc32)OCO4)cc1F`, the AC50 under setting [1] was 15.8 µM [falling, single point].

Consider `O=C(Nc1cc(-c2nc3ccccc3o2)ccc1Cl)c1sc2c([N+](=O)[O-])cccc2c1Cl`, for which the AC50 under setting [1] is 1.58 µM [rising, partial curve, poor fit].

`CCOc1ccc(CN2CCc3nc(N4CCN(c5ccccc5OC)CC4)ncc3C2)cc1OC`: the AC50 under setting [1] was 0.0316 µM [rising, full curve, poor fit].

Turning to `CC(C)(C)OC(=O)N1CCC(c2c(C(=O)NCc3cccc(Cl)c3)cnn2-c2ccc(F)cc2)CC1`, the AC50 under setting [1] was 7.94 µM [falling, partial curve].

`COc1ccc(-n2c(-c3ccc(C)cc3)cc3c2CC(C)(C)CC3=O)cc1Cl`: the concentration at half-maximal activity (AC50) under setting [1] is 15.8 µM [falling, partial curve].

Regarding `COc1ccc(-c2nc(SCC(=O)NC3CCCC3)c(-c3ccc(F)cc3)[nH]2)cc1`, the half-maximal activity concentration (AC50) under setting [1] is 25.1 µM [falling, partial curve].

Take `COc1ccccc1Cn1c(CNS(=O)(=O)c2ccc(C(C)C)cc2)nc2cccnc21`: under setting [1], the AC50 was 39.8 µM [falling, single point].

As to `O=C(c1ccc2c(c1)N(Cc1ccc(F)cc1)C(=O)c1ccccc1S2(=O)=O)N1CCCC1`, under setting [1], the AC50 is 10 µM [falling, partial curve].

Take `COc1ccc(CNC(=O)c2nc(SCc3ccccc3F)ncc2Cl)cc1`: the concentration at half-maximal activity (AC50) under setting [1] is 10 µM [falling, partial curve].

For `CC(NC(=O)c1ccc2c(c1)CCN2S(=O)(=O)c1ccccc1)c1ccccc1` (stereo not drawn), the AC50 under setting [1] is 15.8 µM [falling, single point].

`Fc1ccccc1Cc1cn2cc(-c3ccc(Cl)cc3)nc2s1`: the AC50 under setting [1] is 0.316 µM [falling, full curve].

In the case of `O=c1c2ccccc2sn1-c1cc(S(=O)(=O)N2CCOCC2)ccc1N1CCOCC1`, the AC50 under setting [1] was 25.1 µM [falling, partial curve].

With `O=C(c1nn(Cc2ccccc2)c(=O)c2ccccc12)N1CCN(c2ccccn2)CC1`, under setting [1], the AC50 is 12.6 µM [falling, partial curve].

Turning to `COc1ccc(-n2c(C)c(C(C)=O)c3cc(OC(=O)COc4ccccc4)ccc32)cc1`, under setting [1], the AC50 is 15.8 µM [falling, partial curve].

As for `Cc1cc(C)cc(OCC(=O)N(Cc2cccs2)c2ccc(Cl)cc2)c1`, the AC50 under setting [1] is 39.8 µM [falling, single point].

Regarding `Cc1cc(-c2ccc(C)c(S(=O)(=O)NCc3cccc(Br)c3)c2)on1`, the AC50 under setting [1] was 31.6 µM [falling, partial curve].

`CC(C)CCNc1nc2c(c(=O)n(Cc3cccc(F)c3)c(=O)n2C)n1C`: the AC50 under setting [1] was 20 µM [falling, partial curve].

Regarding `CCCCCn1c(CCNC(=O)c2ccc(F)cc2)nc2ccccc21`, the AC50 under setting [1] was 25.1 µM [falling, partial curve].

As for `Fc1ccc(-c2nn(-c3ccccc3Cl)c3c2cnc2ccccc23)cc1`, under setting [1], the AC50 was 39.8 µM [falling, single point].

Consider `Cc1ccc2onc(CC(=O)N3CCN(c4cc(Cl)ccc4C)CC3)c2c1`, for which the AC50 under setting [1] was 31.6 µM [falling, single point].

Turning to `Cc1ccc(CNC(=O)Cc2c(C)c3c(cc(C)c4c(C)coc43)oc2=O)cc1`, the AC50 under setting [1] was 3.16 µM [rising, single point].

With `CCCc1nc2sc3ccccc3c(=O)c2c(=O)n1Cc1ccco1`, the AC50 under setting [1] was 1 µM [falling, partial curve].

With `COc1cccc(C(=O)c2c(N)c(-c3nc(-c4ccccc4)cs3)c3ccccn23)c1`, the AC50 under setting [1] is 3.16 µM [falling, partial curve].

Consider `Cc1cccc(-n2c(=O)c3c(c4cc(C)ccc4n3C)n(CC(=O)N3CCCC3)c2=O)c1`, for which the AC50 under setting [1] was 31.6 µM [falling, single point].

As for `O=C(CN1C(=O)COc2ccccc21)NCCc1ccc(Cl)cc1`, under setting [1], the AC50 is 39.8 µM [falling, single point].

In the case of `Cc1ccc(CNC(=O)c2ccc(NC(=O)N3CCSc4ncccc43)cc2)cc1`, the AC50 under setting [1] was 10 µM [falling, partial curve].

Regarding `Cc1cccc(C)c1OCCCn1c(CCNC(=O)C2CCCCC2)nc2ccccc21`, the AC50 under setting [1] is 25.1 µM [falling, partial curve].

For the compound `CCOc1ccccc1NC(=O)c1nc(SC(C)C)ncc1Cl`, under setting [1], the half-maximal activity concentration (AC50) was 39.8 µM [falling, single point].

Regarding `CCc1ccc(NC(=O)CN2C(=O)C(c3ccc(Cl)cc3)=NC23CCCCC3)cc1`, the AC50 under setting [1] is 12.6 µM [falling, partial curve].

For `O=C1/C(=C/c2ccccc2)[C@@H](NC2CCCCC2)c2ccccc21`, the AC50 under setting [1] is 3.98 µM [falling, partial curve].

With `Cc1cccc(/C=C(\C#N)c2nc3ccccc3c(=O)[nH]2)c1`, under setting [1], the AC50 is 10 µM [falling, partial curve].

Consider `COc1ccc(N2CCN(CCCNC(=O)c3cc(Nc4ccc(OC)cc4OC)nc4ccccc34)CC2)cc1`, for which the AC50 under setting [1] is 20 µM [falling, partial curve].

`O=C(CCS(=O)(=O)c1ccccc1)N(Cc1cccnc1)c1nc2ccc(Cl)cc2s1`: the AC50 under setting [1] was 12.6 µM [falling, partial curve, poor fit].

For the compound `COC(=O)C1=C(C)N(c2ccc(Cl)c(Cl)c2)C(=O)C1`, under setting [1], the AC50 is 1.58 µM [falling, full curve].

On to `CCCN1Cc2cccc(C(=O)Nc3ccc(C(C)=O)cc3)c2C1=O`, for which the AC50 under setting [1] is 0.794 µM [rising, full curve].

As to `Cc1cc(C(=O)NCc2cccs2)c(C)o1`, the AC50 runs as follows: (measured here: IkB-luc green channel) 6.31 µM [rising, single point]; (measured here: control luc red channel) 31.6 µM [falling, single point].

For `CC(C)c1ccc(C2CC(=O)N3CN(Cc4ccco4)CSC3=C2C#N)cc1` (stereo not drawn), under setting [1], the AC50 was 10 µM [falling, partial curve].

Consider `Cc1cc(C(=O)N2CCN(c3cccc(C)c3C)CC2)c2c(C)nn(-c3ccccc3)c2n1`, for which, under setting [1], the concentration at half-maximal activity (AC50) is 10 µM [falling, partial curve].

Take `CCOC(=O)c1sc(NC(=O)C2c3ccccc3Oc3ccccc32)c(C#N)c1C`: under setting [1], the half-maximal activity concentration (AC50) is 3.98 µM [falling, full curve].

As for `Cc1ccc(C(=O)c2cn(CC(=O)NCc3ccccc3Cl)c3nc(C)ccc3c2=O)cc1`, the AC50 under setting [1] is 1 µM [falling, full curve, poor fit].

For `CCCC(=O)NC(C)c1nc2ccccc2n1Cc1ccccc1` (stereo not drawn), the AC50 under setting [1] was 31.6 µM [falling, single point].

On to `O=C(O)CCCCCNC(=O)c1cccc(Br)c1`, for which the concentration at half-maximal activity (AC50) under setting [1] is 3.16 µM [falling, full curve].

For the compound `Cc1c(C(=O)N(C)C)sc2c1c(=O)n(-c1ccc(Cl)cc1)c(=O)n2Cc1ccccc1F`, under setting [1], the AC50 was 6.31 µM [rising, single point].

As for `COc1ccc(C)cc1NC(=O)CCC(=O)Nc1ccc2nc(N3CCN(C)CC3)cc(C)c2c1`, the AC50 under setting [1] is 15.8 µM [falling, partial curve].

With `CCc1ccccc1-n1c(C)nc2cc(C(=O)NCCc3ccc(Cl)cc3)ccc21`, under setting [1], the AC50 was 31.6 µM [falling, single point].

With `Cc1ccc(-n2ncc(C(=O)NCCN3CCCC3)c2C2CCN(C(=O)OC(C)(C)C)CC2)cc1C`, the AC50 under setting [1] was 15.8 µM [falling, partial curve].

As for `COc1cccc(-c2cc(C(=O)Nc3c(C)nn(Cc4ccccc4C)c3C)no2)c1`, the AC50 under setting [1] is 10 µM [falling, partial curve].

In the case of `CC(=O)Nc1cccc(NC(=O)c2c(-c3ccccc3Cl)noc2C)c1`, the AC50 under setting [1] is 12.6 µM [falling, partial curve].

In the case of `COc1ccc(OC)c2sc(N3CCN(C(=O)CCS(=O)(=O)c4ccc(F)cc4)CC3)nc12`, the AC50 under setting [1] was 39.8 µM [falling, single point].

Consider `COC(=O)c1ccc2c(c1)N(Cc1ccc(Cl)cc1)C(=O)c1ccccc1S2`, for which, under setting [1], the AC50 is 12.6 µM [falling, partial curve].

For the compound `CC1CCN(CCCNC(=O)c2coc3nc4ccccc4nc23)CC1`, the AC50 under setting [1] is 7.94 µM [falling, partial curve].

For `Cc1oc(-c2cccc(Cl)c2)nc1CN1CCCC(C(=O)NC(C)c2ccc3c(c2)OCCO3)C1` (stereo not drawn), the AC50 under setting [1] was 25.1 µM [falling, partial curve].

As for `CC1=CC(C)(C)N2C(=O)C3(SCC(=O)N3c3ccc(O)cc3)c3cc(C)cc1c32` (stereo not drawn), the AC50 under setting [1] was 20 µM [falling, partial curve].

As to `CCOc1ccc(CCNc2ncnc3onc(-c4ccc(Cl)cc4)c23)cc1OCC`, under setting [1], the half-maximal activity concentration (AC50) was 3.16 µM [falling, single point].

Consider `COc1ccc(NC(=O)C(c2ccc(C)cc2)N(C)C(=O)/C=C\c2ccc3c(c2)OCO3)cc1` (stereo not drawn), for which the AC50 under setting [1] was 3.16 µM [falling, full curve].

As for `CCOC(=O)c1ccc(NC(=O)CCc2c(C)nc3c(c(C)nn3-c3ccccc3)c2C)cc1`, under setting [1], the AC50 was 12.6 µM [falling, partial curve].
